# According to PMC7819943, “Rice protein-binding microarrays: a tool to detect cis-acting elements near promoter regions in rice”:
# The list shows a part of the results.
# Target: T1, OsSMF1 (Oryza sativa, UniProt Q6ZLB0 1-436)
# T1 sequence: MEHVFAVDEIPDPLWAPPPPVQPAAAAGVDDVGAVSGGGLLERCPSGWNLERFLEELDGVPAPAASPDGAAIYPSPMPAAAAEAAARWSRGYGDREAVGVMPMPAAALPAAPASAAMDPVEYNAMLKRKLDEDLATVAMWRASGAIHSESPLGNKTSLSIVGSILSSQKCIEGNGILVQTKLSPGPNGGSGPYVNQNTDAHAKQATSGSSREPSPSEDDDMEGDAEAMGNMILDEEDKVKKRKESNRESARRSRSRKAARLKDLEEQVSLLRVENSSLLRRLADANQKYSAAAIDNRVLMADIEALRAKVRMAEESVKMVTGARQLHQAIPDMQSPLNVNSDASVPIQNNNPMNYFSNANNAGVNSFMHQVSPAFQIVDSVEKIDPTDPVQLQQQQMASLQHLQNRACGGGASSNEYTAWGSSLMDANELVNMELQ
# Assay: protein-binding microarray (RPBM); PBS, 2% BSA, 51.3 ng/ul salmon testes DNA, 50 uM zinc acetate, 200 nM TF, 25 C, 1 h; high values mean tight binding
# Conditions: protein: recombinant; tags: N-terminal polyhistidine and DsRed monomer fusion (pET32a); chain copies: 2; label: CyDye5-dUTP incorporated in the synthesized complementary strand; 3' TTTTT single-stranded linker to array surface; dsDNA, one strand shown
# Procedure, shortened: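 A custom Agilent array was converted to double-stranded form by primer extension with Cy5-dUTP and blocked with 2% BSA. Protein at 200 nM in PBS with 2% BSA, salmon testes DNA and 50 µM zinc acetate was applied for 1 h at 25 °C, followed by washing. The proteins were polyhistidine–DsRed N-terminal fusions of transcription factors, expressed in E. coli BL21-CodonPlus and Ni–NTA-purified. The binding signal is per-feature fluorescence intensity (arbitrary units) from an Axon 4000B scanner.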
row,Sequence,binding signal
1,GAGCGAATAAAAGTTTAGGGGAAACTGCTCATTTCAGCTTCGGAGTCACCTAGTGCAG,29700 fluorescence intensity (a.u.)
2,TGCAGCACGGACTCCAAGACGTAATATGTGTATGACAGGTCGGAGTCACCTAGTGCAG,4060 fluorescence intensity (a.u.)
3,TGAAGTACGTCGCGCCGAGCTCGGCCGCCACGGCGGAGTACGGAGTCACCTAGTGCAG,3650 fluorescence intensity (a.u.)
4,TCACACCCCATCTATGTTGTCGCTCCACATAGGCTAGGCCCGGAGTCACCTAGTGCAG,3260 fluorescence intensity (a.u.)
5,ACGCTTTCGCCGTGCCAAAGCCGTGACGTGCGCGCGCGTTCGGAGTCACCTAGTGCAG,7370 fluorescence intensity (a.u.)
6,AGCTTGCATATAGCTGTCCAGATATGTTTGGTTGCTGACACGGAGTCACCTAGTGCAG,3640 fluorescence intensity (a.u.)
7,GTCCAAACTAACCCCACCAAAGCTAAAACGTCATTTATTTCGGAGTCACCTAGTGCAG,3390 fluorescence intensity (a.u.)
8,TGACAGCTCAATGCAAAACTATTGTGTTCGAACCATCAGACGGAGTCACCTAGTGCAG,23300 fluorescence intensity (a.u.)
9,TGATGCTACAATAAACATTTACTAATGACGGATTAATTAGCGGAGTCACCTAGTGCAG,3430 fluorescence intensity (a.u.)
10,GCCGCCCTATACGTGCGCCACGAAACGCAAGGCAGACGTCCGGAGTCACCTAGTGCAG,3660 fluorescence intensity (a.u.)
11,ATCTGGGCTTTGAGCAGACACACTAACGTGAAACTTAACTCGGAGTCACCTAGTGCAG,38800 fluorescence intensity (a.u.)
12,GCGCTCGTCGACGTGGACAACCGGGCGTCGCAGCGCGTGGCGGAGTCACCTAGTGCAG,6920 fluorescence intensity (a.u.)
13,CTTGTGGCCCATTAATGGCTCGCGTCGGCCTAATTTTGTGCGGAGTCACCTAGTGCAG,4450 fluorescence intensity (a.u.)
14,CTCGCTGTCTTTCTCTATCTAGCGGGTCGCGGTGAGTCGTCGGAGTCACCTAGTGCAG,3340 fluorescence intensity (a.u.)
15,GGACGACGTGCGACTGTGACACTTCACCTGCAGATACATACGGAGTCACCTAGTGCAG,4080 fluorescence intensity (a.u.)
16,AGTGTGTACGGCGATGAACAGTGTCATCAGAATCATCCGACGGAGTCACCTAGTGCAG,3140 fluorescence intensity (a.u.)
17,TACTACTGATTTTCCCTTCGTCAAGCGACTCCAAAACGTGCGGAGTCACCTAGTGCAG,3320 fluorescence intensity (a.u.)
18,TCAATGATATTTATGTGTGTGACATGTATGTCGAGTTCGTCGGAGTCACCTAGTGCAG,4360 fluorescence intensity (a.u.)
19,TCAGCTCAGCAAATTAGGATGTTTCATTAGTTAGAACAAACGGAGTCACCTAGTGCAG,51600 fluorescence intensity (a.u.)
20,TTGGACAAATCATTTGGCAAAATTTCAAAGTTTTGAATCTCGGAGTCACCTAGTGCAG,28600 fluorescence intensity (a.u.)
21,ATGTCGGTCTGATGTATATGCTTCTATGTTTGAATTGTGTCGGAGTCACCTAGTGCAG,3270 fluorescence intensity (a.u.)
22,AGCATCCGAGACGTGACGTCACGTCACCCCGCCTTTACTCCGGAGTCACCTAGTGCAG,28500 fluorescence intensity (a.u.)
23,GACCAGCGGTGGCCGGCGACGCCGCCACGGTGCTCGTCCCCGGAGTCACCTAGTGCAG,4530 fluorescence intensity (a.u.)
24,ATCCACGCCGCCACCGGCGCCCCGACCTATCTCGCCCTCCCGGAGTCACCTAGTGCAG,3850 fluorescence intensity (a.u.)
25,TACGGTCTCGTCGGTATCATCGAATTCTGTTATTCCCTTTCGGAGTCACCTAGTGCAG,3200 fluorescence intensity (a.u.)
26,GGAATGGATAGTGTTCTCGGAAGGAAATTGGTGCTGATGTCGGAGTCACCTAGTGCAG,45600 fluorescence intensity (a.u.)
27,AACACTCTCAGTGAAAGGAAACATCACTAGCAACGTTGCACGGAGTCACCTAGTGCAG,3420 fluorescence intensity (a.u.)

# Shown as tab-separated lines: entries from further up.
row	Sequence	binding signal
3	TGAAGTACGTCGCGCCGAGCTCGGCCGCCACGGCGGAGTACGGAGTCACCTAGTGCAG	3650 fluorescence intensity (a.u.)
4	TCACACCCCATCTATGTTGTCGCTCCACATAGGCTAGGCCCGGAGTCACCTAGTGCAG	3260 fluorescence intensity (a.u.)
5	ACGCTTTCGCCGTGCCAAAGCCGTGACGTGCGCGCGCGTTCGGAGTCACCTAGTGCAG	7370 fluorescence intensity (a.u.)
6	AGCTTGCATATAGCTGTCCAGATATGTTTGGTTGCTGACACGGAGTCACCTAGTGCAG	3640 fluorescence intensity (a.u.)
7	GTCCAAACTAACCCCACCAAAGCTAAAACGTCATTTATTTCGGAGTCACCTAGTGCAG	3390 fluorescence intensity (a.u.)
8	TGACAGCTCAATGCAAAACTATTGTGTTCGAACCATCAGACGGAGTCACCTAGTGCAG	23300 fluorescence intensity (a.u.)
9	TGATGCTACAATAAACATTTACTAATGACGGATTAATTAGCGGAGTCACCTAGTGCAG	3430 fluorescence intensity (a.u.)
10	GCCGCCCTATACGTGCGCCACGAAACGCAAGGCAGACGTCCGGAGTCACCTAGTGCAG	3660 fluorescence intensity (a.u.)
11	ATCTGGGCTTTGAGCAGACACACTAACGTGAAACTTAACTCGGAGTCACCTAGTGCAG	38800 fluorescence intensity (a.u.)
12	GCGCTCGTCGACGTGGACAACCGGGCGTCGCAGCGCGTGGCGGAGTCACCTAGTGCAG	6920 fluorescence intensity (a.u.)
13	CTTGTGGCCCATTAATGGCTCGCGTCGGCCTAATTTTGTGCGGAGTCACCTAGTGCAG	4450 fluorescence intensity (a.u.)
14	CTCGCTGTCTTTCTCTATCTAGCGGGTCGCGGTGAGTCGTCGGAGTCACCTAGTGCAG	3340 fluorescence intensity (a.u.)
15	GGACGACGTGCGACTGTGACACTTCACCTGCAGATACATACGGAGTCACCTAGTGCAG	4080 fluorescence intensity (a.u.)

# More results.

row,Sequence,binding signal
1,GTACGGTGTTTAACTTGCGTACTGTACAATTGTACATGTACGGAGTCACCTAGTGCAG,3160 fluorescence intensity (a.u.)
2,CCTACAAGACACATCATCCAAAGATCAGCCTTGGAGTTCACGGAGTCACCTAGTGCAG,4160 fluorescence intensity (a.u.)
3,CGATTTGTGACCGGTCTGACACTGGTCATGTCGTCAGCAGCGGAGTCACCTAGTGCAG,7660 fluorescence intensity (a.u.)
4,CTAGCTGTTGAGAATTTGTCCGATGTGTCTCCCTTGTTCCCGGAGTCACCTAGTGCAG,4700 fluorescence intensity (a.u.)
5,GGGCAGCAAATTAAGTGCCGGCAATAAACTAATATAGCAGCGGAGTCACCTAGTGCAG,16400 fluorescence intensity (a.u.)
6,GTTGGTGGCGAGCGCGCGGCGGCCACGCACGTACGTGGCCCGGAGTCACCTAGTGCAG,4880 fluorescence intensity (a.u.)
7,CTCTCCTCCATCCATGACGTCAGTTTGGCCACACCCAATGCGGAGTCACCTAGTGCAG,7680 fluorescence intensity (a.u.)
8,TAATGGCATCGTCCCTAGTAGGCTAGTACTATACATTGTGCGGAGTCACCTAGTGCAG,3280 fluorescence intensity (a.u.)
9,AGCTCCAGCTCCACGCTGTGCCAAACAAGCCCTTAGCTTACGGAGTCACCTAGTGCAG,3390 fluorescence intensity (a.u.)
10,CATGATGTATGACCTTGTTACATCAGTATCTGTGGTATGGCGGAGTCACCTAGTGCAG,4020 fluorescence intensity (a.u.)
11,ATGGTGCCCGTGGCCGTGGTGTACGCAACTTGTCCGCAGCCGGAGTCACCTAGTGCAG,3260 fluorescence intensity (a.u.)
12,TCTCGCCGCCATTGTCACGTCTCACGTGCGCGCCACCACCCGGAGTCACCTAGTGCAG,3330 fluorescence intensity (a.u.)
13,AGGCAGCAATGGCGCCTCCTCCGAACACGTACTCGGAGTCCGGAGTCACCTAGTGCAG,4390 fluorescence intensity (a.u.)
14,CCCCACAGCACGTCACGTCACGCTCACGCCGTCAGCCCTGCGGAGTCACCTAGTGCAG,12000 fluorescence intensity (a.u.)
15,TCCTGTTACAATCATCTGACTCTCTGTGATTGAAACCTTGCGGAGTCACCTAGTGCAG,4180 fluorescence intensity (a.u.)
16,GGTTGATTGATCCGCCACGCAAGCTTTGCTACCTAACCATCGGAGTCACCTAGTGCAG,9840 fluorescence intensity (a.u.)
17,ATATAATGTTTTCAATAATGTTGTTTTCAAATGAAACAAGCGGAGTCACCTAGTGCAG,23600 fluorescence intensity (a.u.)
18,ACTTCCCACGTGTCACCCTGACGTGCACTGCTGGCAGCTGCGGAGTCACCTAGTGCAG,30100 fluorescence intensity (a.u.)
19,TAGTGATGGCCTCCTCTAGCTCGTGCGTCACTGATCTCCACGGAGTCACCTAGTGCAG,7120 fluorescence intensity (a.u.)
20,AGGTTGGTGATTCAGAGATGTCGAGACGTGTGTTCTTTTGCGGAGTCACCTAGTGCAG,4270 fluorescence intensity (a.u.)
21,TCAAAGCTTGAGCCACAGAAAATGCCACGGTGGATTGGATCGGAGTCACCTAGTGCAG,35400 fluorescence intensity (a.u.)
22,AAAGGAGAAGAAGGAAATATCATGATTCATGAACCCAACCCGGAGTCACCTAGTGCAG,3160 fluorescence intensity (a.u.)
23,GTACTGACGTACTCCACTGAGTAGTGCGTAATTGCGTATGCGGAGTCACCTAGTGCAG,5980 fluorescence intensity (a.u.)
24,TTCCTGTCATCATGATGCACGCGTGCATTGCTATTTACTACGGAGTCACCTAGTGCAG,4280 fluorescence intensity (a.u.)
25,GGCTTAAGTCAAGCTAATTTTAGATATTTATTATTTTGTGCGGAGTCACCTAGTGCAG,3900 fluorescence intensity (a.u.)
26,CACCTGCTTAGGGGATGTTTGGATCAAGAACCACATCGGACGGAGTCACCTAGTGCAG,3380 fluorescence intensity (a.u.)
27,ACATGAACTCTATCTGCAATATCTGTTCAGTGTTTCAGTGCGGAGTCACCTAGTGCAG,3670 fluorescence intensity (a.u.)
